Data as given in article doi:10.1101/2025.11.23.689998.
These are yes or no findings as the source states them, for the method shown. Binding seen in cells or lysates may run through a third protein. Here binding means that the protein was enriched with, or labelled near, the bait; the list need not be complete.

Sequences of proteins named here, by UniProt entry; tags and fusion partners are left off.
UniProt Q9FIJ0: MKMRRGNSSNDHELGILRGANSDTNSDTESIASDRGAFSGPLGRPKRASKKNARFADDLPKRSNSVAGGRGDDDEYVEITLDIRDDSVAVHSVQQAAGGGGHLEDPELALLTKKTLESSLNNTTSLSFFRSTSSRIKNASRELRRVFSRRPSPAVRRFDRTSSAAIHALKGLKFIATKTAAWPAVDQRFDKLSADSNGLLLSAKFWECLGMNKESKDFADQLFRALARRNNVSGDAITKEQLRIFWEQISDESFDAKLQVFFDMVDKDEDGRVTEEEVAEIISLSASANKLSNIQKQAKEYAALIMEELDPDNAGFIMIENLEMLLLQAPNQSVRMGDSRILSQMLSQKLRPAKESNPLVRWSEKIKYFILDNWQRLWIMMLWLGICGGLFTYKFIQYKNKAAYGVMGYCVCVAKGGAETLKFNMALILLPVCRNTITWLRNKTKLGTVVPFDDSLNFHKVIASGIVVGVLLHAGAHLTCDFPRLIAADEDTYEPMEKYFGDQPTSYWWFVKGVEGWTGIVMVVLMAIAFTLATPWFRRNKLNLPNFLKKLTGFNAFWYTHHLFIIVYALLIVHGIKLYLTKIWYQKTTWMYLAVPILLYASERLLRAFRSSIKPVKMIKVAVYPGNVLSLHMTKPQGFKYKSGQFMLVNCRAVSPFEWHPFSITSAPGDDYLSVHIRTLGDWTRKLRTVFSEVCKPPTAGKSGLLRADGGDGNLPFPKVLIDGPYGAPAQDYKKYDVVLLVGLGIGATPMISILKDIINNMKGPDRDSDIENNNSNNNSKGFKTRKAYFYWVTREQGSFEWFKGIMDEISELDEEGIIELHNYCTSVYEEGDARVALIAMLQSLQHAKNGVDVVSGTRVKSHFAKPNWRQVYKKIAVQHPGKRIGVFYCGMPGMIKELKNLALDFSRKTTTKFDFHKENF
UniProt P14713: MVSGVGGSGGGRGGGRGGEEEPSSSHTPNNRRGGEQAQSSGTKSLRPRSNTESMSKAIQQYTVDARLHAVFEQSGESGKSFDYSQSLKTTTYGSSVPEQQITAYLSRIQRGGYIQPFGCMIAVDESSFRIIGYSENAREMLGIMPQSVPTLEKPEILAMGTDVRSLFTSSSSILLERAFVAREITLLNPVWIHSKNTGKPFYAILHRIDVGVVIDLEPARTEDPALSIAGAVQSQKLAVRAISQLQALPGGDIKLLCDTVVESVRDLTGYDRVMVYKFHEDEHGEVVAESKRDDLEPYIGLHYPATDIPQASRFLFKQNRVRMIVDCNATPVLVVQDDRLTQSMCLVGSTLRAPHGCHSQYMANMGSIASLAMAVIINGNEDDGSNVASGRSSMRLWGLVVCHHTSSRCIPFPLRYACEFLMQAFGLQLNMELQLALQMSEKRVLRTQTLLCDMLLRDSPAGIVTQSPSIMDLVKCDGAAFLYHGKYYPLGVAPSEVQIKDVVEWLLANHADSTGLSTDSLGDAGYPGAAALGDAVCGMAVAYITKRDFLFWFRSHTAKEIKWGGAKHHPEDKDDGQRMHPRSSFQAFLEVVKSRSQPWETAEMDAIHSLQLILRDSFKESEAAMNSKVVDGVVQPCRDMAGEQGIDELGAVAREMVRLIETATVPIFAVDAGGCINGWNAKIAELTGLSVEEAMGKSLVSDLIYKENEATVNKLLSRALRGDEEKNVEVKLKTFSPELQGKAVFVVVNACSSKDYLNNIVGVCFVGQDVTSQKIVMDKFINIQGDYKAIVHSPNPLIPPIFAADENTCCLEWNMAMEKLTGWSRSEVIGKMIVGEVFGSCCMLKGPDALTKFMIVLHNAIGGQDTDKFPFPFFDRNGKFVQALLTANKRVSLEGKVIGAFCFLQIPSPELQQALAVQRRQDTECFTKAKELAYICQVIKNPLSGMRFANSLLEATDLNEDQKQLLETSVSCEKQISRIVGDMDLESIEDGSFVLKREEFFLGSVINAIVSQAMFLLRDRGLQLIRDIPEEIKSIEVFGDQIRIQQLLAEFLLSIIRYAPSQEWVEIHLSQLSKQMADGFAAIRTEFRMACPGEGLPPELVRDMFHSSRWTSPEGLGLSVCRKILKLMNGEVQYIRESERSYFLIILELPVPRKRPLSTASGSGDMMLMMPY

Columns and labels:
[1] = molecular target: HA-tagged RBOHD (RESPIRATORY BURST OXIDASE PROTEIN D) (Arabidopsis thaliana) (UniProt Q9FIJ0); experiment: affinity purification with mass spectrometry
[2] = molecular target: phyB-miniTurbo (phyB CDS - miniTurbo-sCFP3A-3FLAG) (Arabidopsis thaliana) (UniProt P14713); experiment: proximity labelling

binding [1]: binds | binding [2]: binds
B1: CYSTEINE-RICH RECEPTOR LIKE KINASE 10 (receptor, UniProt Q8GYA4 35-669)
chain: QDPTYVYHTCQNTANYTSNSTYNNNLKTLLASLSSRNASYSTGFQNATVGQAPDRVTGLFNCRGDVSTEVCRRCVSFAVNDTLTRCPNQKEATLYYDECVLRYSNQNILSTLITTGGVILVNTRNVTSNQLDLLSDLVLPTLNQAATVALNSSKKFGTRKNNFTALQSFYGLVQCTPDLTRQDCSRCLQLVINQIPTDRIGARIINPSCTSRYEIYAFYTESAVPPPPPPPSISTPPVSAPPRSGKDGNSKVLVIAIVVPIIVAVLLFIAGYCFLTRRARKSYYTPSAFAGDDITTADSLQLDYRTIQTATDDFVESNKIGQGGFGEVYKGTLSDGTEVAVKRLSKSSGQGEVEFKNEVVLVAKLQHRNLVRLLGFCLDGEERVLVYEYVPNKSLDYFLFDPAKKGQLDWTRRYKIIGGVARGILYLHQDSRLTIIHRDLKASNILLDADMNPKIADFGMARIFGLDQTEENTSRIVGTYGYMSPEYAMHGQYSMKSDVYSFGVLVLEIISGKKNSSFYQTDGAHDLVSYAWGLWSNGRPLELVDPAIVENCQRNEVVRCVHIGLLCVQEDPAERPTLSTIVLMLTSNTVTLPVPRQPGLFFQSRIGKDPLDTDTTSKSLLGSVDDASITDIHPR
